The text below walks through data of publication PMC9224307.

Amino acid sequences for entries named in this document (tags omitted). A change or cut given only in a name is not applied to a line headed by its entry.
UniProt Q99757: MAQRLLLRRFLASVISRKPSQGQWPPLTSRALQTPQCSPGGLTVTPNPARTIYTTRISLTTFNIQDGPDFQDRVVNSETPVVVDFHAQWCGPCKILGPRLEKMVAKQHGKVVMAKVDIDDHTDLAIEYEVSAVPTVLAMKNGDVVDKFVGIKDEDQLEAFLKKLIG
UniProt Q15286: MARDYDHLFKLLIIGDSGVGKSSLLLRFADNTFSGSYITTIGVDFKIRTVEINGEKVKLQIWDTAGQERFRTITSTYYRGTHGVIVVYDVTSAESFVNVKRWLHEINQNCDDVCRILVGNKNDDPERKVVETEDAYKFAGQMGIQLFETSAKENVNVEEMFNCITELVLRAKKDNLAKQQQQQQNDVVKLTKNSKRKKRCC

Results are given in words; binding and its absence hold for the method and conditions named. In cells and extracts the contact can be indirect. Binding can be weak; no strength is given.

The target of assay [1] is FLAG-tagged full-length (FL) TRX2 (mitochondrial thioredoxin 2) (human) (UniProt Q99757). Kind of assay: co-IP; HCT116 co-transfected with FLAG-tagged TRX2 (full length or truncated) and HA-tagged Rab35 (full length or truncated), 72 h; IP with anti-FLAG beads, pellet analysed by WB.
Assay [2] has the same target. Kind of assay: co-IP; HCT116 or HEK293T transfected with FLAG-TRX2 or pcDNA3.1+, 72 h; lysate precleared with control IgG, anti-FLAG IP; blot for endogenous Rab35, Rab7A or Rab11B.

In the case of “HA-tagged full-length Rab35 (from UniProt Q15286 1-201)”, the binding result in assay [1] is listed as “binds”. “HA-tagged Rab35 N-terminal motif (amino acids 1-92, containing the switch I and II domains) (from UniProt Q15286 1-92) (domain or fragment)”: in assay [1], the binding result is reported as “binds”. Consider “Rab35 (endogenous) (from UniProt Q15286 1-201)”, for which the binding entry in assay [2] was “binds”.
